Drawing on doi:10.1101/2021.01.14.426760, this text covers binding for one molecule.

These are yes or no findings as the source states them, for the method shown. Binding seen in cells or lysates may run through a third protein. Binding can be weak; no strength is given. Tags and fused reporters may be left off the sequences shown.

The target of this assay is GST-Fos (Kay) (Drosophila). Briefly: pull-down.

B1: His-EcR (Ecdysone receptor) (receptor, UniProt P34021 1-878)
chain: MKRRWSNNGGFMRLPEESSSEVTSSSNGLVLPSGVNMSPSSLDSHDYCDQDLWLCGNESGSFGGSNGHGLSQQQQSVITLAMHGCSSTLPAQTTIIPINGNANGNGGSTNGQYVPGATNLGALANGMLNGGFNGMQQQIQNGHGLINSTTPSTPTTPLHLQQNLGGAGGGGIGGMGILHHANGTPNGLIGVVGGGGGVGLGVGGGGVGGLGMQHTPRSDSVNSISSGRDDLSPSSSLNGYSANESCDAKKSKKGPAPRVQEELCLVCGDRASGYHYNALTCEGCKGFFRRSVTKSAVYCCKFGRACEMDMYMRRKCQECRLKKCLAVGMRPECVVPENQCAMKRREKKAQKEKDKMTTSPSSQHGGNGSLASGGGQDFVKKEILDLMTCEPPQHATIPLLPDEILAKCQARNIPSLTYNQLAVIYKLIWYQDGYEQPSEEDLRRIMSQPDENESQTDVSFRHITEITILTVQLIVEFAKGLPAFTKIPQEDQITLLKACSSEVMMLRMARRYDHSSDSIFFANNRSYTRDSYKMAGMADNIEDLLHFCRQMFSMKVDNVEYALLTAIVIFSDRPGLEKAQLVEAIQSYYIDTLRIYILNRHCGDSMSLVFYAKLLSILTELRTLGNQNAEMCFSLKLKNRKLPKFLEEIWDVHAIPPSVQSHLQITQEENERLERAERMRASVGGAITAGIDCDSASTSAAAAAAQHQPQPQPQPQPSSLTQNDSQHQTQPQLQPQLPPQLQGQLQPQLQPQLQTQLQPQIQPQPQLLPVSAPVPASVTAPGSLSAVSTSSEYMGGSAAIGPITPATTSSITAAVTASSTTSAVPMGNGVGVGVGVGGNVSMYANAQTAMALMGVALHSHQEQLIGGVAVKSEHSTTA
In the case of B1, the binding entry was “binds”.
